From the supplement of paper PMC10849652
This is one part of the list.

The chains behind the UniProt entries cited, without tags or fusion partners. Where a name states a change or a piece, a line headed by the entry shows the natural chain unless it says otherwise.
UniProt O95295: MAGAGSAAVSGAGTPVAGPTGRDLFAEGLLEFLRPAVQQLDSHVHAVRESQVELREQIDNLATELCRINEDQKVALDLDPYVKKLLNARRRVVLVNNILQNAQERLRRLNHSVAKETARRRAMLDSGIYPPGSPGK
UniProt O75940: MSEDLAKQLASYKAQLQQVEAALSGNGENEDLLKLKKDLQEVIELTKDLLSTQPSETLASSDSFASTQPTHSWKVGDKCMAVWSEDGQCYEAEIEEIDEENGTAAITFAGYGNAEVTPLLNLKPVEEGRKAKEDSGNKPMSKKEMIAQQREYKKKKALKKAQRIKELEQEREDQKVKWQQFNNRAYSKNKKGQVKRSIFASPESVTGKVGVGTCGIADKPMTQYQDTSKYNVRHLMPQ
UniProt Q9H2G2: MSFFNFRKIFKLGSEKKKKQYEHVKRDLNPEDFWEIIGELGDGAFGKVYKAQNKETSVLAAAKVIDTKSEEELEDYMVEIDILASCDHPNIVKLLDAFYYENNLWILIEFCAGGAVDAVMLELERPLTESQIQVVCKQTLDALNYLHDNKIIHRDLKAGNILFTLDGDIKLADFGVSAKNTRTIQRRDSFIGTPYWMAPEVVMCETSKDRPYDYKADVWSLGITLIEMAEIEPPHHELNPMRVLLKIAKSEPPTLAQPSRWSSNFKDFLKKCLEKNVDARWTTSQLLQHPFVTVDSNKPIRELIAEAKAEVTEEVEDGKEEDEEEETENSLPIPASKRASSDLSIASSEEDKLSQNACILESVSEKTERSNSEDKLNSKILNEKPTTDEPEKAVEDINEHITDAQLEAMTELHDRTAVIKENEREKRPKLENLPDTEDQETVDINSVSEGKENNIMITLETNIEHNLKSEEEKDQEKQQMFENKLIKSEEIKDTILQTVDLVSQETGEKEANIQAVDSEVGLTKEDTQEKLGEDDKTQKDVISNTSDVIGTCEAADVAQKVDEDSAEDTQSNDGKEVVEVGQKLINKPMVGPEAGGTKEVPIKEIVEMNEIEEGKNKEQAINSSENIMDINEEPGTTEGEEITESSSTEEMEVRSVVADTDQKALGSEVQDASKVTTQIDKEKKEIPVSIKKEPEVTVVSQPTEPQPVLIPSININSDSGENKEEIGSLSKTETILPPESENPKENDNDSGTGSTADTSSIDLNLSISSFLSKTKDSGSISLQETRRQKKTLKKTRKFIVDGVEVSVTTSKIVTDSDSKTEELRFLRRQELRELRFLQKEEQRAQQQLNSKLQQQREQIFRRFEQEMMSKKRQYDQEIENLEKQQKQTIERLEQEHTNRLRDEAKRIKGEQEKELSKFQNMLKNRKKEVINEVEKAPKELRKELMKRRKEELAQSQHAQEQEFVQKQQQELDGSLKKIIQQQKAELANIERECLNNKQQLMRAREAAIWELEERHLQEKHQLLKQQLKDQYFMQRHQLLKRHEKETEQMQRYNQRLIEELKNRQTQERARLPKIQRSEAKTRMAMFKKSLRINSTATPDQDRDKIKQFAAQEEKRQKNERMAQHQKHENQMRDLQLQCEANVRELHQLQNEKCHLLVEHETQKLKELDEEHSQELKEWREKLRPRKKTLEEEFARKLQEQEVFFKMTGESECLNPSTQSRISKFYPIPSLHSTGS
UniProt Q969G3, whole entry, looked up: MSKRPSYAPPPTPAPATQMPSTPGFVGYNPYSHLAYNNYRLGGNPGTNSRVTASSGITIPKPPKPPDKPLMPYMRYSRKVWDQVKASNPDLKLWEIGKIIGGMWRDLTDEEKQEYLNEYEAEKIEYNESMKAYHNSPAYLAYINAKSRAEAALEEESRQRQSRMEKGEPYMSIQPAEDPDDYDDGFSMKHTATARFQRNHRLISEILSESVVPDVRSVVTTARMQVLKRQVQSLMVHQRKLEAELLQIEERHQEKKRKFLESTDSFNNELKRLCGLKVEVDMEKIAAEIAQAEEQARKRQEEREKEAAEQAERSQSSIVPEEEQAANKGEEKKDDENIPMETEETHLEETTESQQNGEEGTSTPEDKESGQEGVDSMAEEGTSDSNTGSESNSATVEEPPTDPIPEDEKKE
UniProt Q13424: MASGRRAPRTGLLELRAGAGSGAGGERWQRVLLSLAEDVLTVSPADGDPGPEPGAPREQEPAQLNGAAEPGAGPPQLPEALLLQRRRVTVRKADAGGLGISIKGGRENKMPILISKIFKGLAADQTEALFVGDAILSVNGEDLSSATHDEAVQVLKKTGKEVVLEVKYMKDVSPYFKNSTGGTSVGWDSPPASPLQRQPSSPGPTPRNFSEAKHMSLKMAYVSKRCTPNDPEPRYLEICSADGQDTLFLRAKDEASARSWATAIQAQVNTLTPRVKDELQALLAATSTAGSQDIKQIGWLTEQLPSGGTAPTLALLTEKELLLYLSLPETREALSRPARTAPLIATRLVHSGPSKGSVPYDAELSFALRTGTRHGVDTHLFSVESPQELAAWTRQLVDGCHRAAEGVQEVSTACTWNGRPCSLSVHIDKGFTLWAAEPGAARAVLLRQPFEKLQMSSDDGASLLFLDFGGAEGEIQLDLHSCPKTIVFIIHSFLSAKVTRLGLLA
UniProt Q9BT81: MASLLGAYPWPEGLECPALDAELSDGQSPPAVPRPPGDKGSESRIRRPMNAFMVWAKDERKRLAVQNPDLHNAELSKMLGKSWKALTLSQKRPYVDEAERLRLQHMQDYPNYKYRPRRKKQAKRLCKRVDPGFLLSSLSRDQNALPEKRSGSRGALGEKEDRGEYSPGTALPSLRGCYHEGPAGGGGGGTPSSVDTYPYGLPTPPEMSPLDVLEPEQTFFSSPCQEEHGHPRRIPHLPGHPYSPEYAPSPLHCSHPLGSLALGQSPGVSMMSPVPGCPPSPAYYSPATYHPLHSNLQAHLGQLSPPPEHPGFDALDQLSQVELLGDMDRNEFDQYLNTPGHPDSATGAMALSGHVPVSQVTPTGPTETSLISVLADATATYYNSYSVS
UniProt Q96KF7: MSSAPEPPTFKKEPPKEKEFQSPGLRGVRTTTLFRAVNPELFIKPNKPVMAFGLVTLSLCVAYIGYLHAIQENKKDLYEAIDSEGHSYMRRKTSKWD

Key:
Test in all cases: log2 fold change, soluble protein after heating vs DMSO (PISA); higher = thermal stabilisation; K562 cells, 10 uM, 30 min; active = over 0.2 and 3.5 SD of the protein, either way, in both replicates (recomputed)
bafetinib = compound: Cc1ccc(NC(=O)c2ccc(CN3CC[C@H](N(C)C)C3)c(C(F)(F)F)c2)cc1Nc1nccc(-c2cncnc2)n1 [bafetinib]
In short: (§1)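 Soluble protein was defined as the supernatant after 21,000xg for 90 min. It came from K562 cells at 2×10^6 cells/mL given 10 μM compound for 30 min, heated in aliquots for 3 min across 48°C-58°C, pooled, and extracted in PBS with 0.5% NP-40 at 4°C, and was quantified by TMTpro 16plex LC-MS/MS with equalised channel sums. Thermal stability against control samples, from duplicates, is reported as log2 fold change.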

[1] = compound: Cc1cccc(CC(=O)N2CCc3c2ccc(-c2cn(C)c4ncnc(N)c24)c3F)n1
In short: as §1

nilotinib = compound: Cc1cn(-c2cc(NC(=O)c3ccc(C)c(Nc4nccc(-c5cccnc5)n4)c3)cc(C(F)(F)F)c2)cn1 [nilotinib]
In short: as §1

[2] = compound: Cc1nc(Nc2n[nH]c3c2CN(C(=O)N[C@H](CN(C)C)c2ccccc2)C3(C)C)c2sccc2n1
In short: as §1

dasatinib = compound: Cc1nc(Nc2ncc(C(=O)Nc3c(C)cccc3Cl)s2)cc(N2CCN(CCO)CC2)n1 [dasatinib]
In short: as §1

[3] = compound: Cc1ncc(-c2ccnc(Nc3ccc(S(C)(=O)=O)cc3)n2)n1C(C)C
In short: as §1

[4] = compound: Cn1cc(-c2ccc3c(c2)CCN3C(=O)Cc2cccc(C(F)(F)F)c2)c2c(N)ncnc21
In short: as §1

[5] = compound: Cn1cc(-c2ccc3nnc(C(F)(F)c4ccc5ncccc5c4)n3n2)cn1
In short: as §1

tipifarnib = compound: Cn1cncc1[C@@](N)(c1ccc(Cl)cc1)c1ccc2c(c1)c(-c1cccc(Cl)c1)cc(=O)n2C [tipifarnib]
In short: as §1

mubritinib = compound: FC(F)(F)c1ccc(/C=C/c2nc(COc3ccc(CCCCn4ccnn4)cc3)co2)cc1 [mubritinib]
In short: as §1

[6] = compound: NC(=O)Nc1cc(-c2cccc(F)c2)sc1C(=O)N[C@H]1CCCNC1
In short: as §1

[7] = compound: NC(=O)c1cnc(N[C@@H]2CCCC[C@@H]2N)nc1Nc1cccc(-n2nccn2)c1
In short: as §1

[8] = compound: NC1(c2ccc(-c3nc4ccn5c(=O)[nH]nc5c4cc3-c3ccccc3)cc2)CCC1
In short: as §1

[9] = compound: NCC(=O)Nc1ccc(-n2nc(C(F)(F)F)cc2-c2ccc3c(ccc4ccccc43)c2)cc1
In short: as §1

entinostat = compound: Nc1ccccc1NC(=O)c1ccc(CNC(=O)OCc2cccnc2)cc1 [entinostat]
In short: as §1

vorinostat = compound: O=C(CCCCCCC(=O)Nc1ccccc1)NO [vorinostat]
In short: as §1

citarinostat = compound: O=C(CCCCCCNC(=O)c1cnc(N(c2ccccc2)c2ccccc2Cl)nc1)NO [citarinostat]
In short: as §1

silmitasertib = compound: O=C(O)c1ccc2c(c1)nc(Nc1cccc(Cl)c1)c1ccncc12 [silmitasertib]
In short: as §1

[10] = compound: O=C1NC(=O)C(c2cnc3ccccn23)=C1c1cn2c3c(cc(F)cc13)CN(C(=O)N1CCCCC1)CC2
In short: as §1

[11] = compound: c1cc(OCCN2CCCCC2)cc(-c2n[nH]c3ccc(-c4nnc[nH]4)cc23)c1
In short: as §1

Measured: log2 fold change

SNAPIN (UniProt O95295)
inactive: bafetinib -0.031 | [1] 0 | nilotinib -0.035 | [2] -0.014 | dasatinib -0.024 | [3] 0.01 | [4] 0.036 | [5] 0.096 | tipifarnib 0.035 | mubritinib 0.011 | [6] -0.06 | [7] -0.041 | [8] -0.044 | [9] 0.041 | entinostat -0.041 | vorinostat -0.085 | citarinostat 0.026 | silmitasertib -0.023 | [10] -0.022 | [11] -0.043

SMNDC1 (UniProt O75940)
inactive: bafetinib -0.013 | [1] -0.062 | nilotinib 0.051 | [2] 0.15 | dasatinib 0.095 | [3] 0.16 | [4] -0.048 | [5] -0.069 | tipifarnib 0.046 | mubritinib -0.064 | [6] -0.036 | [7] -0.021 | [8] 0.112 | [9] 0.059 | entinostat -0.032 | vorinostat -0.042 | citarinostat -0.009 | silmitasertib 0.018 | [10] 0.027 | [11] -0.073

SLK isoform 2 (UniProt Q9H2G2)
inactive: bafetinib -0.032 | [1] -0.076 | nilotinib -0.041 | [2] -0.169 | dasatinib -0.085 | [3] 0.015 | [5] 0.004 | tipifarnib -0.018 | mubritinib 0.026 | [7] -0.042 | [8] -0.058 | [9] -0.014 | entinostat 0.048 | vorinostat 0.006 | citarinostat 0.074 | silmitasertib 0.124 | [10] 0.009 | [11] -0.044
active: [4] -0.289 | [6] -0.314

SNRPD2 (UniProt K7EJB5)
inactive: bafetinib 0.105 | [1] -0.254 | nilotinib -0.136 | [2] 0.13 | dasatinib 0.134 | [3] 0.037 | [4] -0.147 | [5] 0.067 | tipifarnib 0.12 | mubritinib -0.007 | [7] -0.172 | [8] -0.008 | [9] -0.292 | vorinostat -0.101 | citarinostat -0.003 | silmitasertib 0.073 | [11] 0.026

SMARCE1 (UniProt Q969G3)
inactive: bafetinib -0.181 | [1] 0.041 | nilotinib -0.191 | [2] 0.16 | dasatinib -0.07 | [3] -0.055 | [4] -0.056 | [5] -0.09 | tipifarnib -0.082 | mubritinib -0.274 | [6] 0.05 | [7] 0.096 | [8] 0.218 | [9] 0.707 | entinostat 0.076 | vorinostat 0.088 | citarinostat 0 | silmitasertib 0.211 | [10] -0.008 | [11] -0.016

SNTA1 (UniProt Q13424)
inactive: bafetinib -0.145 | [1] 0.072 | nilotinib 0.112 | [2] -0.018 | dasatinib -0.072 | [3] -0.098 | [4] -0.067 | [5] -0.072 | tipifarnib -0.07 | mubritinib 0.006 | [6] 0.026 | [7] -0.059 | [8] -0.105 | [9] -0.047 | entinostat -0.007 | vorinostat -0.093 | silmitasertib 0.195 | [10] 0.084

SOX7 isoform 2 (UniProt Q9BT81)
inactive: bafetinib 0.092 | [1] 0 | nilotinib -0.066 | [2] 0.362 | dasatinib 0.181 | [3] 0.135 | [4] -0.244 | [5] -0.164 | tipifarnib 0.145 | mubritinib -0.159 | [7] -0.001 | [8] 0.297 | [9] 0.087 | vorinostat -0.02 | silmitasertib 0.289 | [10] 0.243

SMIM8 (UniProt Q96KF7)
inactive: bafetinib -0.009 | [1] -0.088 | nilotinib 0.019 | [2] 0.002 | dasatinib -0.043 | [3] -0.07 | [4] 0.004 | [5] 0.004 | tipifarnib -0.02 | mubritinib 0.007 | [6] -0.009 | [7] 0.007 | [8] 0.061 | [9] -0.001 | entinostat 0.016 | vorinostat -0.129 | citarinostat -0.014 | silmitasertib 0.036 | [10] -0.048 | [11] -0.153
